These results are taken from article PMC3708871.

No constants are given. Whether binding was seen depends on the method and setting.

The assay addresses T1, Peptide of the cytoplasmic domain of human tetherin, residues 1–21, C9S, biotinylated (human).
T1 sequence (peptide, biotin (maleimide-PEG2-Biotin) at C20): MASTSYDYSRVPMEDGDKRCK
Put plainly: SPR; BIAcore 3000, 25°C, PBS with 5 mM DTT; biotinylated tetherin peptides captured (3,000 RU) on neutravidin-coated CM5 chip, Nef proteins flowed at 5 µl/min; equilibrium analysis, apparent Kd; both purified. In general terms: Surface plasmon resonance follows binding to a sensor surface in real time, without labels.

For the substance “Recombinant SIVmac239 Nef core domain, residues 96–237 (domain or fragment)”, the binding result is listed as “no binding”.
